Assay results taken from article PMC6113293, “Phosphorylation of ULK1 affects autophagosome fusion and links chaperone-mediated autophagy to macroautophagy” (Nature Communications, 2018).
Where a chain is given by its changes, count along the chain named. Results are given in words; binding and its absence hold for the method and conditions named. For some of these results: In cells and extracts the contact can be indirect. Some entries that bind do so weakly or less than the wild type. For some of these results: Where a sequence is shown, tags or fusion partners need not be part of it.

By UniProt entry, the sequences of proteins in these tests, tags left out.
UniProt Q14457: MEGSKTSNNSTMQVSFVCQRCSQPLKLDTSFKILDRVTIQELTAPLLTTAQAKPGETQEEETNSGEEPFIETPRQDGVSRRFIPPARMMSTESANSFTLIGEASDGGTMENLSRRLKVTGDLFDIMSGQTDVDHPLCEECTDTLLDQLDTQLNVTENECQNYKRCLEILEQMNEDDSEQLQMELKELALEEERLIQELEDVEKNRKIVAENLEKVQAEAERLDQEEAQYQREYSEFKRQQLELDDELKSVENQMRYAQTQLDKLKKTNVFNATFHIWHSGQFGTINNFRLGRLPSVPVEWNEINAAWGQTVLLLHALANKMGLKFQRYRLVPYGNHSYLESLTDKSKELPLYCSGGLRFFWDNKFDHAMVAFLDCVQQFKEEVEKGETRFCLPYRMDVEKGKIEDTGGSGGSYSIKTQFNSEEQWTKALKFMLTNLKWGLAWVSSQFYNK
UniProt P11142: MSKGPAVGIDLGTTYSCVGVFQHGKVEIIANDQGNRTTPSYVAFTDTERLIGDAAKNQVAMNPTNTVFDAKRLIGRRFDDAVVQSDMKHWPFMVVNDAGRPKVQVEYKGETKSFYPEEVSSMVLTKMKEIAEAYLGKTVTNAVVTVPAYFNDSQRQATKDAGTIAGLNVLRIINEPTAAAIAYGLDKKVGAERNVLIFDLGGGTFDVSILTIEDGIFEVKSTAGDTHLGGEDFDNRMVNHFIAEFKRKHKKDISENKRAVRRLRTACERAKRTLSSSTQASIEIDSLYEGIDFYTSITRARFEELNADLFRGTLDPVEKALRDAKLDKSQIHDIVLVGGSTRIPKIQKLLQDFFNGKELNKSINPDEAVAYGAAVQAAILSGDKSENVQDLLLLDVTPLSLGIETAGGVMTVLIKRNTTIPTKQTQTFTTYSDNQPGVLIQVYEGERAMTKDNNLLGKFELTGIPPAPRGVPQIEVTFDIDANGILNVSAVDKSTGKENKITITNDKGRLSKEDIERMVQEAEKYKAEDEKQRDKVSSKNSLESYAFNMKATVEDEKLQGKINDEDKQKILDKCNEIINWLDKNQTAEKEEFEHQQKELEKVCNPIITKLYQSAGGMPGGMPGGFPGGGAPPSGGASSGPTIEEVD

Key:
[1] = target: T1, Myc-ULK1 WT (UniProt O75385); experiment: co-IP; semi-endogenous: Myc-ULK1 variants transfected, endogenous partners detected in the IP by their antibodies
T1 sequence: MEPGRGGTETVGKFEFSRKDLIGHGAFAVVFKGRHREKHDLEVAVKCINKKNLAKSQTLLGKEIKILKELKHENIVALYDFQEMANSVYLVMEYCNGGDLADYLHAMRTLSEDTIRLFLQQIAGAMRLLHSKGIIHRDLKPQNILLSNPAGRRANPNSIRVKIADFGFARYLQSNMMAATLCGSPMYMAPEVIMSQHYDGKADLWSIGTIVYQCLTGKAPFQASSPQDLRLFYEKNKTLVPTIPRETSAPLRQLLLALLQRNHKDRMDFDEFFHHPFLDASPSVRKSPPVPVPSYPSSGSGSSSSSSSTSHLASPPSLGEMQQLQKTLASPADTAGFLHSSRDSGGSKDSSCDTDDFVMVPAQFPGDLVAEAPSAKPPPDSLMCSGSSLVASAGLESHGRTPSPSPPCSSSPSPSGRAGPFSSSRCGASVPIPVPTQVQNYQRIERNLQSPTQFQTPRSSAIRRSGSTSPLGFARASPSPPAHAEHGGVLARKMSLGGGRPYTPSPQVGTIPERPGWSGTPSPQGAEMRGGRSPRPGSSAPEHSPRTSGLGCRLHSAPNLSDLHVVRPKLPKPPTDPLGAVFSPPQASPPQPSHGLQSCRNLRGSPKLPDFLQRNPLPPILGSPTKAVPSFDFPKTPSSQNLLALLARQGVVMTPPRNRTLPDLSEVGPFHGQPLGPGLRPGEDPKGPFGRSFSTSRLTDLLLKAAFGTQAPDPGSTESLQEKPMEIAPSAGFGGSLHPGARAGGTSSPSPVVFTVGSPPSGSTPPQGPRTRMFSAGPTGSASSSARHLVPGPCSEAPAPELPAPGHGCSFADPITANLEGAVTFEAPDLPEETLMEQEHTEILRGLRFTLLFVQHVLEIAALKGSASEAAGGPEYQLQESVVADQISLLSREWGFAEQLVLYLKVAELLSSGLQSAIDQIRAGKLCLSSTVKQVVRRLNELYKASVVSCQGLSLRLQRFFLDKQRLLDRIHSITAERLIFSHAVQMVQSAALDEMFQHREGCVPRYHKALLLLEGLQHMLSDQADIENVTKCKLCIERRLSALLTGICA

[2] = target: T2, Myc-ULK1 S423A (UniProt O75385); experiment: as above
T2 sequence: T1 sequence with S423A

[3] = target: T3, Myc-ULK1 S423D (UniProt O75385); experiment: as above
T3 sequence: T1 sequence with S423D

[4] = target: T1, Myc-ULK1 WT; experiment: co-IP; both partners tagged and co-transfected into HEK293T for 24 h; IP with anti-Myc antibody (IgG or Myc control); western blot
[5] = target: T2, Myc-ULK1 S423A; experiment: as above
[6] = target: T3, Myc-ULK1 S423D; experiment: as above
[7] = target: T4, GST-ULK1 (UniProt O75385); experiment: pull-down; GST-ULK1 (or GST) co-transfected with the tagged partner in HEK293T; lysate pulled down with glutathione agarose at 4 °C overnight; western blot
T4 sequence: T1 sequence

[8] = target: T5, ULK1 (endogenous) (human (endogenous in HeLa)) (UniProt O75385); experiment: co-IP; endogenous proteins, HeLa lysate; IP with anti-ULK1 or anti-STX17 antibody or IgG; western blot; cells also serum-starved, treated with CQ, PMA or GÖ6983, or transfected with Myc-ULK1 variants
T5 sequence: T1 sequence

[9] = target: T6, GST-ULK1 279–525 (from bacteria) (UniProt O75385); experiment: in vitro binding assay; recombinant GST-ULK1 279–525 (from bacteria) and His-PKCα (from insects); both purified
T6 sequence: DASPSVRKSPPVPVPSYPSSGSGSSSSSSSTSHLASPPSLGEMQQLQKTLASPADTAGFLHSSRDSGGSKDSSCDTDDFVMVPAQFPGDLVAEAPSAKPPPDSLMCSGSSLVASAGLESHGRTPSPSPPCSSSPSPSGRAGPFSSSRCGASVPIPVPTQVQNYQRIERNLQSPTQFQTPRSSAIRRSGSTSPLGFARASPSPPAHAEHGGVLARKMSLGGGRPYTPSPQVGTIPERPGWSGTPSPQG

[10] = target: T7, GST-ULK1 279–525 (truncation, in mammalian cells) (UniProt O75385); experiment: pull-down; GST-ULK1 truncations transfected into HeLa for 24 h; glutathione beads; endogenous STX17 detected with STX17 antibody
T7 sequence: T6 sequence

[11] = target: T8, Myc-ULK1 WT, O75385; experiment: co-IP; both partners tagged and co-transfected into HEK293T for 24 h; IP with anti-Myc antibody (IgG or Myc control); western blot; details: remark: other sources report otherwise
T8 chain: T1 sequence

[12] = target: T9, STX17 (endogenous) (human (endogenous in HeLa)), P56962; experiment: co-IP; endogenous proteins, HeLa lysate; IP with anti-ULK1 or anti-STX17 antibody or IgG; western blot; cells also serum-starved, treated with CQ, PMA or GÖ6983, or transfected with Myc-ULK1 variants; details: remark: other sources report otherwise
T9 chain: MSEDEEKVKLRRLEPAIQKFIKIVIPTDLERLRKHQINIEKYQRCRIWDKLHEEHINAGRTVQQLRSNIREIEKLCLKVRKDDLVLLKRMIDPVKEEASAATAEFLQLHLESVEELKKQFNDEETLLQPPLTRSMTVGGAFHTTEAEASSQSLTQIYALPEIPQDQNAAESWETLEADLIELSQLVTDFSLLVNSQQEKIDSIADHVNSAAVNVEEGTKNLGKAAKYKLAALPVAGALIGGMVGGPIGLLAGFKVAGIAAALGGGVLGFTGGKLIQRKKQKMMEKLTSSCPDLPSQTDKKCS

What does the source list for “BECN1 (endogenous) (from UniProt Q14457 1-450)”?
binding [1]: binds; binding [2]: binds; binding [3]: binds

Which results are given for Flag-BECN1 (from UniProt Q14457 1-450)?
binding [4]: binds; binding [5]: binds; binding [6]: binds

Which binding [7] does the source give for “GFP-STX17 157–275 (from UniProt P56962 157-275) (domain or fragment)” here?
The binding was “binds”.

Which binding [7] does the source give for “HA-PKCα (from UniProt P17252 1-672) (enzyme)” here?
The binding was “binds”.

How did the binding [8] turn out when “HSC70 (endogenous) (from UniProt P11142 1-646)” was run?
Its binding is “binds”.

How did the binding [9] turn out when “His-PKCα (from insects) (from UniProt P17252 1-672) (enzyme)” was run?
The binding was “binds”.

For “PKCα (endogenous) (from UniProt P17252 1-672) (enzyme)”, which binding [8] is on record?
Its binding is “binds”.

Which results are given for “STX17 (endogenous) (from UniProt P56962 1-302)”?
binding [2]: binds; binding [3]: binds; binding [10]: binds

B1: Flag-SBP-STX17, P56962 1-302 (protein)
chain: T9 chain
B1 was tested. Which binding [11] did it give?
The binding was “binds”.

B2: VAMP8 (endogenous), Q9BV40 1-100 (protein)
chain: MEEASEGGGNDRVRNLQSEVEGVKNIMTQNVERILARGENLEHLRNKTEDLEATSEHFKTTSQKVARKFWWKNVKMIVLICVIVFIIILFIVLFATGAFS
How did the binding [12] turn out when B2 was run?
The binding was “binds”.
